Source: publication PMC10868123
These are yes or no findings as the source states them, for the method shown. In cells and extracts the contact can be indirect. Some entries that bind do so weakly or less than the wild type. Blank lines part the entries; values can stand above or below the substance they belong to.

The chains behind the UniProt entries cited, without tags or fusion partners. Where a name states a change or a piece, a line headed by the entry shows the natural chain unless it says otherwise.
UniProt P61026: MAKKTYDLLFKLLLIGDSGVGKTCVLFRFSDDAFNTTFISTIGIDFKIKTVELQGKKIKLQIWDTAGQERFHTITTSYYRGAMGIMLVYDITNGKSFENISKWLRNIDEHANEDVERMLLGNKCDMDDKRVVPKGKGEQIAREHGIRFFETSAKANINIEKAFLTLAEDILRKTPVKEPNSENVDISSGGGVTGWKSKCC
UniProt Q709C8: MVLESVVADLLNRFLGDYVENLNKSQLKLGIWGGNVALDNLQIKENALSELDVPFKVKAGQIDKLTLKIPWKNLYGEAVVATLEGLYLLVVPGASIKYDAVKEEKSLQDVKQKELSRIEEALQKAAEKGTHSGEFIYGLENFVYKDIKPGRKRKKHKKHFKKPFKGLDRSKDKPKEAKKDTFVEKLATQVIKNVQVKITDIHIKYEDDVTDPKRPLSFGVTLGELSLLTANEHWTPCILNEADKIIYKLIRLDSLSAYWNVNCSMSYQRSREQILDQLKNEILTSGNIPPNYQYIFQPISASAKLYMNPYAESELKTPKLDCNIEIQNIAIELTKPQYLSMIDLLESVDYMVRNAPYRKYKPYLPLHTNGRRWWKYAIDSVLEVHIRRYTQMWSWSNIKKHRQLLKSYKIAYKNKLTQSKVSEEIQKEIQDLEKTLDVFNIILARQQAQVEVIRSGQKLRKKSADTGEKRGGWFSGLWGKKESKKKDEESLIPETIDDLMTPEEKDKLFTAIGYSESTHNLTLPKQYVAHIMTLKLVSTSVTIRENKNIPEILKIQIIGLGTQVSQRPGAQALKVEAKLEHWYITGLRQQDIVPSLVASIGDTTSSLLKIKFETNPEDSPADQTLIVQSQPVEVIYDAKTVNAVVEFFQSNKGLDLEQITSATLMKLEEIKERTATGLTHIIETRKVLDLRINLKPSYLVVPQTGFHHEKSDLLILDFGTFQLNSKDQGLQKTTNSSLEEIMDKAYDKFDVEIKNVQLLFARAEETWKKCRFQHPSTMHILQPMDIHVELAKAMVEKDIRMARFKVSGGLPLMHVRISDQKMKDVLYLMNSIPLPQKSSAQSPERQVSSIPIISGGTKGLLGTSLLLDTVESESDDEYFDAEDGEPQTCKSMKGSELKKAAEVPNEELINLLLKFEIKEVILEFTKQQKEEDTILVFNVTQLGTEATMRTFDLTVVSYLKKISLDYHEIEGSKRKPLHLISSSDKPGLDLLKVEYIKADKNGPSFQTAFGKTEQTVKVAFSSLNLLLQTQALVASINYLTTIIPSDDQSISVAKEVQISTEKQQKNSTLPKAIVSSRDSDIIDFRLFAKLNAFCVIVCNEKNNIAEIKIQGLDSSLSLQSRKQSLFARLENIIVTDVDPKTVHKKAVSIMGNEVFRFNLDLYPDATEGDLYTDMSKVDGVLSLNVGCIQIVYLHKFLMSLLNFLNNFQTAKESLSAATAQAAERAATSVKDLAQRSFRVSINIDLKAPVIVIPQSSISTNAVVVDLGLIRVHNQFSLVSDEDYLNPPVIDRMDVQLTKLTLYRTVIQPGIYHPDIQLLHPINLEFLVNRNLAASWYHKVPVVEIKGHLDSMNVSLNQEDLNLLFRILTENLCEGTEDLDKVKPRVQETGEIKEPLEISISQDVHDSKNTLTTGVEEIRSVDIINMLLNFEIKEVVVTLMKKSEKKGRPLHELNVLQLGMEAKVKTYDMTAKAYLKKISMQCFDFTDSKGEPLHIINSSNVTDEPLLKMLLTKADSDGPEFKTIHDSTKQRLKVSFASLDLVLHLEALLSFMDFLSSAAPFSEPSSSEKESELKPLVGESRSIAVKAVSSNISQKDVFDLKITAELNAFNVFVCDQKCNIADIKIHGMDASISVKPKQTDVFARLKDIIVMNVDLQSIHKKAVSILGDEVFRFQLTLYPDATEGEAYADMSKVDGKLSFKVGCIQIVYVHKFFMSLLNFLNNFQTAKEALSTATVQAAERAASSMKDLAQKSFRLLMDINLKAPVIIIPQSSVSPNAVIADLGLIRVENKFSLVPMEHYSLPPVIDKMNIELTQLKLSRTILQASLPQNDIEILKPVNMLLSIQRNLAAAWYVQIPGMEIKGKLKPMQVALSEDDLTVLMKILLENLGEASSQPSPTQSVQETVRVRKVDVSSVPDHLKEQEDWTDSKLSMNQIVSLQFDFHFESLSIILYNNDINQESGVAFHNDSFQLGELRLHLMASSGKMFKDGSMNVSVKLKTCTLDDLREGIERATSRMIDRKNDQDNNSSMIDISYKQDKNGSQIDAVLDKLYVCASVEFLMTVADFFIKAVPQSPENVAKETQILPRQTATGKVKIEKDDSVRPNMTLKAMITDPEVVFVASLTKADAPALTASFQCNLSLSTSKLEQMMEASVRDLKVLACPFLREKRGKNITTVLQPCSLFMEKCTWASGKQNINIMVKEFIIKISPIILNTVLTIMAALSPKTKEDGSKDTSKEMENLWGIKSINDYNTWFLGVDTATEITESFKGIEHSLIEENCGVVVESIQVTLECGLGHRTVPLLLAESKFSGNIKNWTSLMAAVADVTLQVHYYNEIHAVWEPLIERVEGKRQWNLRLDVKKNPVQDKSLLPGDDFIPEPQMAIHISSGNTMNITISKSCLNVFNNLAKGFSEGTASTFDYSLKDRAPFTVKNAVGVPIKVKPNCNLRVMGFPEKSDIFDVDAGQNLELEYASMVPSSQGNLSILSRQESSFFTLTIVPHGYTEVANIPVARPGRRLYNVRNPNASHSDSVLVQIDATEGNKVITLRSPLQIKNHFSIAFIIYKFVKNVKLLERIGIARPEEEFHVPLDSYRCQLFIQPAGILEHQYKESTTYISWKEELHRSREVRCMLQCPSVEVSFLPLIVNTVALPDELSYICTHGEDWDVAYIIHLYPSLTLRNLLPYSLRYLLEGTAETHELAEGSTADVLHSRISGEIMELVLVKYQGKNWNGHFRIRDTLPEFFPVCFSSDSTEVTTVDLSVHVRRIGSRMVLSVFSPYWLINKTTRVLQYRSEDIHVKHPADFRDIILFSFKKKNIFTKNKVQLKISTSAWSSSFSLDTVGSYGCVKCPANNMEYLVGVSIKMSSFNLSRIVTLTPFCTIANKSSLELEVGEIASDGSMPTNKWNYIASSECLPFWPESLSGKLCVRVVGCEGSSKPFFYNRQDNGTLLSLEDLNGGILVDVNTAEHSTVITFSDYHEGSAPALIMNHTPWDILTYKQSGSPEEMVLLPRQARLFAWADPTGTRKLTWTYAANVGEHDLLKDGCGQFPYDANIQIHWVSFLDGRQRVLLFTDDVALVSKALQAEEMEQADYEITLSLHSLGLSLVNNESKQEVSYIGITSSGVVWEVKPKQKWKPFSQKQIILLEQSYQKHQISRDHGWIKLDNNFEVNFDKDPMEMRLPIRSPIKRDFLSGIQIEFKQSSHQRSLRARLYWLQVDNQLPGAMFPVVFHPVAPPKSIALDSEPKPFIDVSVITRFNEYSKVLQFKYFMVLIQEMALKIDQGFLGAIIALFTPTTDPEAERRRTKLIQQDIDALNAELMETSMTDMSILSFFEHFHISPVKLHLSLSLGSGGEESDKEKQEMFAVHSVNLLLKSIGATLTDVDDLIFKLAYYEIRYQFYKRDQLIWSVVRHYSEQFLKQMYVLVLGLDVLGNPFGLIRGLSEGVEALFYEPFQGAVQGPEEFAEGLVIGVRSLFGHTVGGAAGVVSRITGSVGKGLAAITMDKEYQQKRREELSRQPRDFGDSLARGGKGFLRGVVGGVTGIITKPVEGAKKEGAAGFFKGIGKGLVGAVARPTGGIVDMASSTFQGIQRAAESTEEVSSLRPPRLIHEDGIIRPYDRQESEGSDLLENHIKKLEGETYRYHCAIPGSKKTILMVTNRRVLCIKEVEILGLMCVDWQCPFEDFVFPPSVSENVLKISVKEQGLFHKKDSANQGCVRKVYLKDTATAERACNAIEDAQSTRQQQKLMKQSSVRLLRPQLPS

Tests used:
[1] = target: phosphomimetic GFP-Rab10 T73E (UniProt P61026); test: co-IP; GFP-Rab10 (WT, T73E, T73A) precipitated with GFP-Trap agarose for 2 h at 4°C from lysate of transfected HEK-293 FT cells; AP-MS buffer (10 mM Tris/Cl pH 7.5, 150 mM NaCl, 10% glycerol, 0.5 mM EDTA, 0.5% Nonidet P40); immunoblot for VPS13C-Myc or endogenous VPS13C; also after treatment of the cells with MLi-2 (200 nM, 16 h and a further 2 h)
eGFP-Rab10 WT = eGFP-Rab10 WT (UniProt P61026); test: as above
[2] = target: Rab10, endogenous in HEK-293 FT cells (human (endogenous in HEK-293 FT)) (UniProt P61026); test: proximity ligation; endogenous VPS13C and Rab10 in fixed, permeabilised HEK-293 FT cells (control or VPS13C knockdown; DMSO or 200 nM MLi-2); Duolink In Situ Red kit with rabbit anti-VPS13C and mouse anti-Rab10
[3] = target: Rab10, endogenous in hiPSC-derived dopaminergic neurons (human (endogenous in hiPSC-derived dopaminergic neurons)) (UniProt P61026); test: proximity ligation; endogenous VPS13C and Rab10 in fixed, permeabilised hiPSC-derived dopaminergic neurons (control or VPS13C knockdown); Duolink In Situ Red kit with rabbit anti-VPS13C and mouse anti-Rab10
VPS13C-Myc-His = VPS13C-Myc-His (UniProt Q709C8); test: co-IP; VPS13C-Myc precipitated with magnetic c-Myc beads overnight at 4°C from lysate of transfected HEK-293 FT cells; AP-MS buffer (10 mM Tris/Cl pH 7.5, 150 mM NaCl, 10% glycerol, 0.5 mM EDTA, 0.5% Nonidet P40); immunoblot for GFP

binding [1]: binds | binding (eGFP-Rab10 WT): binds | binding [2]: binds
Substance: VPS13C, endogenous in HEK-293 cells (from UniProt Q709C8 1-3753)

binding [3]: binds
Substance: VPS13C, endogenous in hiPSC-derived dopaminergic neurons (from UniProt Q709C8 1-3753)

binding (eGFP-Rab10 WT): binds
Substance: VPS13C-Myc-His (from UniProt Q709C8 1-3753)

binding (VPS13C-Myc-His): binds
Substance: eGFP-Rab10 WT (from UniProt P61026 1-200)
